The values below come from paper PMC11624362.

Weaker means in comparison with the reference protein, sequence or condition of that experiment.

The test system of this data set is DNMT3A1-DNMT3L complex (human). Description: EMSA. The conditions noted are these: Fragments: 15 mM HEPES pH 7.5, 75 mM NaCl, 0.05% Triton X-100, 0.05 mg/mL BSA, 10% glycerol, 1 mM DTT, 0.5 mg/mL salmon sperm DNA with nucleosomes, on ice 1 h; recombinant protein.

As for “TGGAGAATCCCGGTGCCGAGGCCGCTCAATTGGTCGTAGACAGCTCTAGCACCGCTTAAACGCACGTACGCGCTGTCCCCCGCGTTTTAACCGCCAAGGGGATTACTCCCTAGTCTCCAGGCACGTGTCAGATATATACATCCTGTCACCATACGCCCTAATTAGAGGCGTAATCCCCCAGTTCGCGCGCCCACC (double strand) [195 bp DNA (Widom 601 + 50 bp linker)]”, the binding result is listed as “binds more weakly”.
